The other results are listed elsewhere or left out.

By UniProt entry, the sequences of proteins in these tests, tags left out. Where a name states a change or a piece, a line headed by the entry shows the natural chain unless it says otherwise.
UniProt Q8IWC1: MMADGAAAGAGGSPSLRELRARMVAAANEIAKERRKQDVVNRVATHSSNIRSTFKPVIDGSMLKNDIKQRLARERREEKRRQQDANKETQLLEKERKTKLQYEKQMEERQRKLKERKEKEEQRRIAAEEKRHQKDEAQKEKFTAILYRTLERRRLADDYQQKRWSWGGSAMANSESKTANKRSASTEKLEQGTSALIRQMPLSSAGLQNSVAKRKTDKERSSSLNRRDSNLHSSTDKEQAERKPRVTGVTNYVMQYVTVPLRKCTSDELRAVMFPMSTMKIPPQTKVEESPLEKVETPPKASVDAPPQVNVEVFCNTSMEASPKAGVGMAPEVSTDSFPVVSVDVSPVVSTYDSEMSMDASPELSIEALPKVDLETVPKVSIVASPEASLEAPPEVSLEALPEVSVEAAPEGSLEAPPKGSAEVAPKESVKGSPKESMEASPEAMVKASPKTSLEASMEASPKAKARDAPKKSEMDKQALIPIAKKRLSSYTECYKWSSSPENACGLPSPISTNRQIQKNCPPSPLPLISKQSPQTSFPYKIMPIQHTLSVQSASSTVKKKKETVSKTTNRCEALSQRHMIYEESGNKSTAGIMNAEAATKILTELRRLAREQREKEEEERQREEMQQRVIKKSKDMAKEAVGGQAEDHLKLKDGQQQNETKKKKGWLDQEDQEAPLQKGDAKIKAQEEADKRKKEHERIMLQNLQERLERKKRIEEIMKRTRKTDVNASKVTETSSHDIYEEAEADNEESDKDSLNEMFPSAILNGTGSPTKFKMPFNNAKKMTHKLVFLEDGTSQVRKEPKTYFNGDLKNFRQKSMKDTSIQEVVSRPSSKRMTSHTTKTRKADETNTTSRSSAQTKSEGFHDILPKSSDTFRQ
UniProt P10636, whole entry, looked up: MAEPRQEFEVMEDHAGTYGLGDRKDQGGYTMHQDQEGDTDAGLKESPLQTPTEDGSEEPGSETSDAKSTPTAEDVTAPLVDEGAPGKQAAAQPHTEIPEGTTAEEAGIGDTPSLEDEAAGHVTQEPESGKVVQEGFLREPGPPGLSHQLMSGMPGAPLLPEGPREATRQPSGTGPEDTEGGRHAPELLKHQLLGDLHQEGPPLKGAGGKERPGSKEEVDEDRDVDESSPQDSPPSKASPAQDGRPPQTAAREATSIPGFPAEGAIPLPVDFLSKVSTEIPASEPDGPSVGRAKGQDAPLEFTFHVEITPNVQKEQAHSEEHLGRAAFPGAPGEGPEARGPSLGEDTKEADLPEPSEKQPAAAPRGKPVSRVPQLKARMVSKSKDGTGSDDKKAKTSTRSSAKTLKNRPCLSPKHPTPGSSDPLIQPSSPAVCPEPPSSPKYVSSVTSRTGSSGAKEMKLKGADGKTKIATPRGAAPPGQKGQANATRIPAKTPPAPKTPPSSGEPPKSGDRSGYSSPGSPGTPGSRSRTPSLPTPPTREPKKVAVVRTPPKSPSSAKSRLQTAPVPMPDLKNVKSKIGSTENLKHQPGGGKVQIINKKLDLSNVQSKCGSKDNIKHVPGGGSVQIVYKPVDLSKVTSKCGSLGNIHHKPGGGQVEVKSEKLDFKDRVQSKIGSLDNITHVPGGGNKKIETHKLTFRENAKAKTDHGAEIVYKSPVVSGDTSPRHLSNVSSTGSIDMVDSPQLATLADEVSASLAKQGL
UniProt Q13163: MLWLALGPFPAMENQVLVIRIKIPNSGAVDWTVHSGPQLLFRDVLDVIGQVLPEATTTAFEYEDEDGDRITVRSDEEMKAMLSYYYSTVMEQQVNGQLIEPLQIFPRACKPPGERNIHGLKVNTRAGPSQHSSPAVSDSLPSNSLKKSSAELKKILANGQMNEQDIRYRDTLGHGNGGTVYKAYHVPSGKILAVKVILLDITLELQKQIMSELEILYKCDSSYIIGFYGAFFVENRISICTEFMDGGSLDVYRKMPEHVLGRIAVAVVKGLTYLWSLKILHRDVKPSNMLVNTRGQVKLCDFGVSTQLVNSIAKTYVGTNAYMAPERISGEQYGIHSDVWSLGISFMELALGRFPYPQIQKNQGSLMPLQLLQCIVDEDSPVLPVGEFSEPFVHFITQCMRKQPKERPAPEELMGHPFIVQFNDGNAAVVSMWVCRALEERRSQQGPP
UniProt P83369: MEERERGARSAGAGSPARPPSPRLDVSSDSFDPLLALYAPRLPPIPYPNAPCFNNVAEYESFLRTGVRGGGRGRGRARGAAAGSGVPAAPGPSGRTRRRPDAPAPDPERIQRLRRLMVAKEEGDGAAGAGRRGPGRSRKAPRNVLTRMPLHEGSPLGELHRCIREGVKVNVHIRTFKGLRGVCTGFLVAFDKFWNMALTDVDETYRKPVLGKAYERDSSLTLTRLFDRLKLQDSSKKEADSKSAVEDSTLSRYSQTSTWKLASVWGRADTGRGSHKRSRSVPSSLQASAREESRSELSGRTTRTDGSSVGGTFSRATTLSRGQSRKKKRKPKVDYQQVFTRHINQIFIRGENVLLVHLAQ
UniProt Q8IZL2, whole entry, looked up: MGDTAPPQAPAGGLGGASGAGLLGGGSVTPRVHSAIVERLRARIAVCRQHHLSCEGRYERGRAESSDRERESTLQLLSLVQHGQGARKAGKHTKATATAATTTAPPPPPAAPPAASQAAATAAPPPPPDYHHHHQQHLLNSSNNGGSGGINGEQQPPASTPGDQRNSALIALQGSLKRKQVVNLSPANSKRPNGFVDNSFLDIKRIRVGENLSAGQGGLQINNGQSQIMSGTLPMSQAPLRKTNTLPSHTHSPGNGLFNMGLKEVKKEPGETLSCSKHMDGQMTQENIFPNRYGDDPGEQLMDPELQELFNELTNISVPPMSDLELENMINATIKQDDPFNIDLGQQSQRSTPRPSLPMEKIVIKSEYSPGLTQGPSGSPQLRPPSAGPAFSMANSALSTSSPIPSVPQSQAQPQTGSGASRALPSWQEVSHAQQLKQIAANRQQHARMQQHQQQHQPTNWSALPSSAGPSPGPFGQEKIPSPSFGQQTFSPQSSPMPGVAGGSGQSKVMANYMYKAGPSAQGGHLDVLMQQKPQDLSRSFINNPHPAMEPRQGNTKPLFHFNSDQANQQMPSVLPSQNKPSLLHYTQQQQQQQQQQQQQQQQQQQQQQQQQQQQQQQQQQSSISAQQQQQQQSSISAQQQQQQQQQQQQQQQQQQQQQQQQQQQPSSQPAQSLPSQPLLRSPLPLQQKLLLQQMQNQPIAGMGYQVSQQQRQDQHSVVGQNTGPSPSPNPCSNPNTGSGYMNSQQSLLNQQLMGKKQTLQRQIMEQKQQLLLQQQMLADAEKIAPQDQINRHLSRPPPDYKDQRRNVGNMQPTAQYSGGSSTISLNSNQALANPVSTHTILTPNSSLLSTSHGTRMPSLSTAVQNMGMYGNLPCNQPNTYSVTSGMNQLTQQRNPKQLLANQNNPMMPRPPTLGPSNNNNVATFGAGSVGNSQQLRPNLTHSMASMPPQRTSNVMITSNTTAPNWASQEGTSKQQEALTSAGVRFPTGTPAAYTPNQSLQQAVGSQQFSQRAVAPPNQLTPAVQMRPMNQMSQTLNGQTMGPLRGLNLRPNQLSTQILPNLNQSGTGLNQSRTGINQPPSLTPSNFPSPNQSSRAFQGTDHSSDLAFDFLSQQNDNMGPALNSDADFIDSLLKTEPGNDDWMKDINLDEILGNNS
UniProt P43361: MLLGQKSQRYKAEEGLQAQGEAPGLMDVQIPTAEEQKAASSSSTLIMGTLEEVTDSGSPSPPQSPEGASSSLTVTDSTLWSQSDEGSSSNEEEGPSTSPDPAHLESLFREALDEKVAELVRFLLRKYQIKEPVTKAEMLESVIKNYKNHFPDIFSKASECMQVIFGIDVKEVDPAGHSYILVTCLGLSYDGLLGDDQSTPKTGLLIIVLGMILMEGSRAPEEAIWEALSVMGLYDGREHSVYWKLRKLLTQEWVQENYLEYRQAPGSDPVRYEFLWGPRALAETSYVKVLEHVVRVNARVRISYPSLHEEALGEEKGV
UniProt Q9UPY8, whole entry, looked up: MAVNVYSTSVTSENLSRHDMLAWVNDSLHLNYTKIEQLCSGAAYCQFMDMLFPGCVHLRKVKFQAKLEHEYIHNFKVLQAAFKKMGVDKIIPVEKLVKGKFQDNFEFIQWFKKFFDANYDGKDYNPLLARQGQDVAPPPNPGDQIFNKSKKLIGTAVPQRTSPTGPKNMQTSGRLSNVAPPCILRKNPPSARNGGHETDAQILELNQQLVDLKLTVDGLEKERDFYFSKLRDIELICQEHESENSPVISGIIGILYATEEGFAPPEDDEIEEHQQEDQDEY
UniProt Q86UD3: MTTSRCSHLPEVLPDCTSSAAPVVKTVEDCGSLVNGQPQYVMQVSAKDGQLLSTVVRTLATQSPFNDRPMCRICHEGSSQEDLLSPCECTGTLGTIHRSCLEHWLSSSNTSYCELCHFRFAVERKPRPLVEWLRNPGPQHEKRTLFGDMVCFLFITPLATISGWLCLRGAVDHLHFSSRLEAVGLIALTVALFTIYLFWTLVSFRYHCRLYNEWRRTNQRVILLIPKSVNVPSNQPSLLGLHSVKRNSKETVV
UniProt Q9Y5V3: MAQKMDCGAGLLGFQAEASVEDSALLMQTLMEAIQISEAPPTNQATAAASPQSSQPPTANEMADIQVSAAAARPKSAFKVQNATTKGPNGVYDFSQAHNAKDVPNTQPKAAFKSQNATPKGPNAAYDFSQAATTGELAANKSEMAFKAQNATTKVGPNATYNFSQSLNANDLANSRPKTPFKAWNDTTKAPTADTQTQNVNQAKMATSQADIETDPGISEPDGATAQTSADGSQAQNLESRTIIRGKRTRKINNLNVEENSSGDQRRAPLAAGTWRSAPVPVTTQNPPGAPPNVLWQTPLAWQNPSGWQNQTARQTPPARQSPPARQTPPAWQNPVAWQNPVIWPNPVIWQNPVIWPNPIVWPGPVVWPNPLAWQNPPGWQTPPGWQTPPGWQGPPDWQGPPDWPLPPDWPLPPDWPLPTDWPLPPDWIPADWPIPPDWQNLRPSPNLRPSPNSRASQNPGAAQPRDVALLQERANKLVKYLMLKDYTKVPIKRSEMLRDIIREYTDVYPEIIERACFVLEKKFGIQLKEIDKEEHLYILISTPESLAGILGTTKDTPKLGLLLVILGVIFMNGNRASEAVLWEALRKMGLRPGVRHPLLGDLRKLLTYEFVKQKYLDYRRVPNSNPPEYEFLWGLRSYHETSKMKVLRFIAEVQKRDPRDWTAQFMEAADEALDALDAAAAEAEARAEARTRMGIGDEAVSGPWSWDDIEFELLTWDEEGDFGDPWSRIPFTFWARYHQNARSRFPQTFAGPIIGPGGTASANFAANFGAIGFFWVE
UniProt O95819: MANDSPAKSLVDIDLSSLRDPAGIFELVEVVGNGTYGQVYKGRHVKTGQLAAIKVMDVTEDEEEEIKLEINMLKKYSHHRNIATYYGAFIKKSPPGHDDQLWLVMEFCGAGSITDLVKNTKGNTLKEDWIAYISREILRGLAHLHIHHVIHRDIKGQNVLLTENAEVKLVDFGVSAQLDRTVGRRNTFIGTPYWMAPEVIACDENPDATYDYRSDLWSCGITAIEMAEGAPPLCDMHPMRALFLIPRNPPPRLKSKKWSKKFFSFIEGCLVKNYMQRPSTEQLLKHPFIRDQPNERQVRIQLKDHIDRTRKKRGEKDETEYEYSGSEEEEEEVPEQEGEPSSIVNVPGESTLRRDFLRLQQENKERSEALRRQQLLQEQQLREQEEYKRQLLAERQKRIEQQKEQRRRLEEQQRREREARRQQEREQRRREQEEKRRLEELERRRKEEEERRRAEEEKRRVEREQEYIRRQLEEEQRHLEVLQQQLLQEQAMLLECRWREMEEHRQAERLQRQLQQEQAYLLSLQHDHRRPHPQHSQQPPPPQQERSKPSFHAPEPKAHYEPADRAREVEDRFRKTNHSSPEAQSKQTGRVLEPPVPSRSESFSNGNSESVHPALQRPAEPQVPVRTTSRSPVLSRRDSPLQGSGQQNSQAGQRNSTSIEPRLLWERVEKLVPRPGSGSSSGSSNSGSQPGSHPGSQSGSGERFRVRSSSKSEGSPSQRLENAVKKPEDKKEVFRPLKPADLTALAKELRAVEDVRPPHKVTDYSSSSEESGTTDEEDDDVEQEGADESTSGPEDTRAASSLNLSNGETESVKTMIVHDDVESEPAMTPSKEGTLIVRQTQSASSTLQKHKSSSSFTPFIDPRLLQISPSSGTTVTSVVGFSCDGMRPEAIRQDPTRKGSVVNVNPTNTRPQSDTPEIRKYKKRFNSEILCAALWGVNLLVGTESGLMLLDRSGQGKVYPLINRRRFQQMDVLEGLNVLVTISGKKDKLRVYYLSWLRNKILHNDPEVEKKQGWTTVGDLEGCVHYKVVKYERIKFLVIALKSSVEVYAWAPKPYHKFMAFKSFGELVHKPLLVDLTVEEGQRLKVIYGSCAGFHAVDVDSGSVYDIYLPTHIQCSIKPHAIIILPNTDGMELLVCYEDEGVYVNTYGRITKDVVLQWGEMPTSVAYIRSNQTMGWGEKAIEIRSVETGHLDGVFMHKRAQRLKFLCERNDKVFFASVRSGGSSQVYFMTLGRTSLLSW

Our source for the log2 fold change values is the supplement of paper PMC10849652.

What all share (assay): log2 fold change, soluble protein after heating vs DMSO (PISA); higher = thermal stabilisation; K562 cells, 10 uM, 30 min; active = over 0.2 and 3.5 SD of the protein, either way, in both replicates (recomputed)
Compound in one assay: CON(C)C(=O)N1N=C(c2cc(F)ccc2F)S[C@@]1(CCCN)c1ccccc1 [filanesib]
The procedure, abridged:
(§1)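 K562 cells (2×10^6 cells/mL) were treated with 10 μM compound for 30 min, and aliquots were heated for 3 min over 48°C-58°C. Pooled aliquots were extracted in PBS with 0.5% NP-40 at 4°C, and the supernatant after 21,000xg for 90 min was measured by TMTpro 16plex LC-MS/MS with channel sums equalised. Reported thermal stability, relative to control samples and from duplicates, is a log2 fold change.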

Compound in another assay: CO[C@H]1C[C@@H]2CC[C@@H](C)[C@@](O)(O2)C(=O)C(=O)N2CCCC[C@H]2C(=O)O[C@H]([C@H](C)C[C@@H]2CC[C@H](n3cnnn3)[C@H](OC)C2)CC(=O)[C@H](C)/C=C(\C)[C@@H](O)[C@@H](OC)C(=O)[C@H](C)C[C@H](C)/C=C/C=C/C=C/1C [zotarolimus]
A digest of the protocol: as §1

Compound in the next assay: COc1cc2ncnc(Nc3ccc(F)c(Cl)c3)c2cc1OCCCN1CCOCC1 [gefitinib]
A digest of the protocol: as §1

Compound in a further assay: CS(=O)(=O)N1CCN(Cc2cc3nc(-c4cccc5[nH]ncc45)nc(N4CCOCC4)c3s2)CC1 [pictilisib]
The procedure, abridged: as §1

Compound in assay [1]: CS(=O)(=O)c1ccc(-c2cnc(N)c(C(=O)Nc3ccccc3)n2)cc1
A digest of the protocol: as §1

Compound in assay [2]: C[C@@H]1COCCN1C2=NC(=NC(=C2)C3(CC3)S(=O)(=O)C)C4=C5C=CNC5=CC=C4
A digest of the protocol: as §1

Compound in assay [3]: C[C@H](C1=CC=C(C=C1)C(=O)NC2=C3C=CNC3=NC=C2)N
The procedure, abridged:
as §1

Compound in a further assay: Cc1cc(Nc2cc(CN3CCOCC3)c3nc(C)c(Cc4ccc(Cl)cc4F)n3n2)n[nH]1 [gandotinib]
A digest of the protocol:
as §1

Compound in a further assay: Cc1ccc(C(=O)N(CCCN)[C@@H](c2nc3cc(Cl)ccc3c(=O)n2Cc2ccccc2)C(C)C)cc1 [ispinesib]
A digest of the protocol: as §1

Compound in another assay: Cc1cc(Nc2cc(N3CCN(C)CC3)nc(Sc3ccc(NC(=O)C4CC4)cc3)n2)n[nH]1 [tozasertib]
A digest of the protocol: as §1

Compound in a further assay: COc1cc(C(=O)O)ccc1NC(=O)[C@@H]1N[C@@H](CC(C)(C)C)[C@](C#N)(c2ccc(Cl)cc2F)[C@H]1c1cccc(Cl)c1F [idasanutlin]
A digest of the protocol: as §1

Compound in assay [4]: COc1cc2nc(-c3cc(F)ccc3O)nc(N[C@@H]3CNC[C@H]3C(C)(C)O)c2cc1OC
A digest of the protocol:
as §1

Compound in the next assay: CS(=O)(=O)CCNCc1ccc(-c2ccc3ncnc(Nc4ccc(OCc5cccc(F)c5)c(Cl)c4)c3c2)o1 [lapatinib]
A digest of the protocol: as §1

Compound in assay [5]: COC1=CC=C(C=C1)CN2C=CC3=C2C=C(C=C3)C(=O)NO
A digest of the protocol: as §1

Compound in another assay: C[C@@H](Oc1cc(-c2cnn(C3CCNCC3)c2)cnc1N)c1c(Cl)ccc(F)c1Cl [crizotinib]
The procedure, abridged: as §1

Compound in assay [6]: Cc1cc(SCc2sc(-c3ccc(C(F)(F)F)cc3)nc2C)ccc1OCC(=O)O
A digest of the protocol: as §1

Compound in the next assay: Cc1ccc(-n2nc(C(C)(C)C)cc2NC(=O)Nc2ccc(OCCN3CCOCC3)c3ccccc23)cc1 [doramapimod]
A digest of the protocol:
as §1

Compound in the next assay: COc1cc(Nc2ncc3c(n2)-c2ccc(Cl)cc2C(c2c(F)cccc2OC)=NC3)ccc1C(=O)O [alisertib]
A digest of the protocol: as §1

Compound in assay [7]: COc1cccc2cc(-c3nc([C@H]4CC[C@H](C(=O)O)CC4)n4ncnc(N)c34)[nH]c12
A digest of the protocol: as §1

Compound in the next assay: C[C@H](Nc1ncnc2nc[nH]c12)c1cc2cccc(Cl)c2c(=O)n1-c1ccccc1 [duvelisib]
The procedure, abridged:
as §1

Regarding MAP7D3 (UniProt Q8IWC1), the log2 fold change with filanesib is inactive: 0.236; with zotarolimus, inactive: 0.027; with gefitinib, inactive: 0.007; in the assay with pictilisib, inactive: -0.03; in assay [1], inactive: -0.058; in assay [2], inactive: -0.306. For the same target, the results for the log2 fold change (in [3]; in the assay with gandotinib; with ispinesib) were inactive: 0.405, inactive: 0.074 and inactive: -0.114, respectively.
On to MAPKAP1 (UniProt Q9BPZ7), for which the log2 fold change with pictilisib is inactive: 0.026; in assay [2], inactive: -0.169; in the assay with gandotinib, inactive: 0.083; with tozasertib, inactive: 0.273; with ispinesib, inactive: -0.287.
Take MAPT isoform 9 (UniProt P10636): the log2 fold change in the assay with filanesib is inactive: 0.088; with idasanutlin, inactive: -0.142; in assay [4] it was inactive: -0.025; with lapatinib it was inactive: -0.121; in [1], inactive: 0.031; in [2], inactive: 0.075.
As for MAP2K5 (UniProt Q13163), the log2 fold change is inactive: 0.206 in assay [5]; inactive: 0.003 with zotarolimus; inactive: -0.117 with idasanutlin; inactive: -0.012 with crizotinib; inactive: 0.072 in assay [3]; inactive: -0.171 in assay [6]. Further, the log2 fold change with doramapimod was inactive: 0.053; with ispinesib, inactive: 0.123.
With LSR (UniProt M0QZL9), the results for the log2 fold change (with filanesib; in assay [1]; in assay [2]) were inactive: 0.168, inactive: -0.03 and inactive: 0.118, respectively.
On to LSM11 (UniProt P83369), for which the log2 fold change in the assay with zotarolimus was inactive: -0.02; with pictilisib, inactive: 0.024; in assay [3] it was inactive: 0.022; with gandotinib, inactive: 0.023.
In the case of MAML2 (UniProt Q8IZL2), the log2 fold change with ispinesib was inactive: 0.089.
For LYPLA1, A0A087X1K9, the log2 fold change with alisertib is inactive: -0.052; in [7] it was inactive: 0.043; in the assay with duvelisib it was inactive: 0.885; in assay [6], inactive: 0.527; with ispinesib, inactive: -0.007.
MAGEA8 (UniProt P43361): the log2 fold change is inactive: 0.061 in [5]; inactive: 0.108 with zotarolimus; inactive: 0.002 in the assay with idasanutlin; inactive: 0.057 in assay [4]; inactive: -0.069 with gefitinib; inactive: -0.032 in the assay with lapatinib. Also, the log2 fold change with pictilisib is inactive: 0.145; in the assay with crizotinib it was inactive: -0.003; in [3] it was inactive: 0.134; with gandotinib, active: -0.472; in assay [6], inactive: -0.002; with doramapimod it was inactive: 0.037. The log2 fold change with ispinesib was inactive: -0.034.
In the case of MAPRE3 isoform 2 (UniProt Q9UPY8), the log2 fold change is inactive: 0.192 in [5]; inactive: 0.008 with zotarolimus; inactive: 0.155 in the assay with idasanutlin; inactive: -0.176 in assay [4]; inactive: -0.02 with gefitinib; inactive: -0.265 with lapatinib. The log2 fold change with crizotinib is inactive: 0.22; in assay [3], inactive: 0.06; in the assay with doramapimod, inactive: 0.007.
As for MARCHF3 (UniProt Q86UD3), the log2 fold change was inactive: -0.272 in the assay with filanesib; inactive: 0.027 in assay [4]; inactive: -0.195 with gefitinib; inactive: -0.033 with lapatinib; inactive: 0.243 in assay [1]; inactive: 0.029 in assay [2].
With MAP3K3 isoform 2 (UniProt Q99759), the log2 fold change was inactive: 0.133 in the assay with filanesib; inactive: 0.026 with zotarolimus; inactive: 0.134 with alisertib; inactive: 0.024 in the assay with gefitinib; inactive: 0.105 in assay [7]; inactive: -0.065 in the assay with pictilisib. For the same target, the log2 fold change was inactive: 0.053 in assay [1]; inactive: -0.062 in assay [2]; inactive: 0.005 in assay [3]; inactive: 0.014 with duvelisib; inactive: 0.138 in the assay with gandotinib; inactive: -0.027 with tozasertib. The log2 fold change in [6] was inactive: 0.072; with ispinesib, inactive: -0.002.
In the case of MAGED1 isoform 2 (UniProt Q9Y5V3), the log2 fold change with filanesib was inactive: 0.264; in the assay with zotarolimus, inactive: 0.001; with idasanutlin it was inactive: 0.054; in assay [4], inactive: -0.058; in the assay with gefitinib it was inactive: 0.228; with lapatinib, inactive: 0.034. Further, the log2 fold change in assay [1] was inactive: -0.012; in assay [2], inactive: 0.096; in assay [3], inactive: 0.205; in assay [6], inactive: -0.008.
On to MAP4K4 isoform 6 (UniProt O95819), for which the log2 fold change is inactive: -0.018 with filanesib; inactive: -0.162 in the assay with zotarolimus; inactive: -0.028 with gefitinib; inactive: -0.179 in assay [7]; inactive: -0.019 in assay [1]; inactive: -0.305 in assay [3]. Further, the log2 fold change in assay [6] is inactive: -0.025.
MAN2B1 (UniProt M0QYZ1): the log2 fold change in assay [5] was inactive: -0.235; with idasanutlin, inactive: -0.238; in assay [4], inactive: 0.221; with lapatinib it was inactive: -0.161; with crizotinib, inactive: 0.228; in [2], inactive: -0.014. Moreover, the log2 fold change in the assay with doramapimod is inactive: 0.036.
